Measurements published in publication PMC12017883.
These are yes or no findings as the source states them, for the method shown. Binding seen in cells or lysates may run through a third protein. A yes stands for co-enrichment or nearness to the bait. Other partners may have been found.

Sequences of proteins named here, by UniProt entry; tags and fusion partners are left off. A change or cut given only in a name is not applied to a line headed by its entry. Residues count along the entry.
UniProt P00441: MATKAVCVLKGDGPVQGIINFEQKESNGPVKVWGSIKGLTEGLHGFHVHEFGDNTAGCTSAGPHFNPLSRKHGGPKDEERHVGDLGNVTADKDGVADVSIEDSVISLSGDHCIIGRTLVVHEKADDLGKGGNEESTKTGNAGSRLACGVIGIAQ
UniProt E9Q616: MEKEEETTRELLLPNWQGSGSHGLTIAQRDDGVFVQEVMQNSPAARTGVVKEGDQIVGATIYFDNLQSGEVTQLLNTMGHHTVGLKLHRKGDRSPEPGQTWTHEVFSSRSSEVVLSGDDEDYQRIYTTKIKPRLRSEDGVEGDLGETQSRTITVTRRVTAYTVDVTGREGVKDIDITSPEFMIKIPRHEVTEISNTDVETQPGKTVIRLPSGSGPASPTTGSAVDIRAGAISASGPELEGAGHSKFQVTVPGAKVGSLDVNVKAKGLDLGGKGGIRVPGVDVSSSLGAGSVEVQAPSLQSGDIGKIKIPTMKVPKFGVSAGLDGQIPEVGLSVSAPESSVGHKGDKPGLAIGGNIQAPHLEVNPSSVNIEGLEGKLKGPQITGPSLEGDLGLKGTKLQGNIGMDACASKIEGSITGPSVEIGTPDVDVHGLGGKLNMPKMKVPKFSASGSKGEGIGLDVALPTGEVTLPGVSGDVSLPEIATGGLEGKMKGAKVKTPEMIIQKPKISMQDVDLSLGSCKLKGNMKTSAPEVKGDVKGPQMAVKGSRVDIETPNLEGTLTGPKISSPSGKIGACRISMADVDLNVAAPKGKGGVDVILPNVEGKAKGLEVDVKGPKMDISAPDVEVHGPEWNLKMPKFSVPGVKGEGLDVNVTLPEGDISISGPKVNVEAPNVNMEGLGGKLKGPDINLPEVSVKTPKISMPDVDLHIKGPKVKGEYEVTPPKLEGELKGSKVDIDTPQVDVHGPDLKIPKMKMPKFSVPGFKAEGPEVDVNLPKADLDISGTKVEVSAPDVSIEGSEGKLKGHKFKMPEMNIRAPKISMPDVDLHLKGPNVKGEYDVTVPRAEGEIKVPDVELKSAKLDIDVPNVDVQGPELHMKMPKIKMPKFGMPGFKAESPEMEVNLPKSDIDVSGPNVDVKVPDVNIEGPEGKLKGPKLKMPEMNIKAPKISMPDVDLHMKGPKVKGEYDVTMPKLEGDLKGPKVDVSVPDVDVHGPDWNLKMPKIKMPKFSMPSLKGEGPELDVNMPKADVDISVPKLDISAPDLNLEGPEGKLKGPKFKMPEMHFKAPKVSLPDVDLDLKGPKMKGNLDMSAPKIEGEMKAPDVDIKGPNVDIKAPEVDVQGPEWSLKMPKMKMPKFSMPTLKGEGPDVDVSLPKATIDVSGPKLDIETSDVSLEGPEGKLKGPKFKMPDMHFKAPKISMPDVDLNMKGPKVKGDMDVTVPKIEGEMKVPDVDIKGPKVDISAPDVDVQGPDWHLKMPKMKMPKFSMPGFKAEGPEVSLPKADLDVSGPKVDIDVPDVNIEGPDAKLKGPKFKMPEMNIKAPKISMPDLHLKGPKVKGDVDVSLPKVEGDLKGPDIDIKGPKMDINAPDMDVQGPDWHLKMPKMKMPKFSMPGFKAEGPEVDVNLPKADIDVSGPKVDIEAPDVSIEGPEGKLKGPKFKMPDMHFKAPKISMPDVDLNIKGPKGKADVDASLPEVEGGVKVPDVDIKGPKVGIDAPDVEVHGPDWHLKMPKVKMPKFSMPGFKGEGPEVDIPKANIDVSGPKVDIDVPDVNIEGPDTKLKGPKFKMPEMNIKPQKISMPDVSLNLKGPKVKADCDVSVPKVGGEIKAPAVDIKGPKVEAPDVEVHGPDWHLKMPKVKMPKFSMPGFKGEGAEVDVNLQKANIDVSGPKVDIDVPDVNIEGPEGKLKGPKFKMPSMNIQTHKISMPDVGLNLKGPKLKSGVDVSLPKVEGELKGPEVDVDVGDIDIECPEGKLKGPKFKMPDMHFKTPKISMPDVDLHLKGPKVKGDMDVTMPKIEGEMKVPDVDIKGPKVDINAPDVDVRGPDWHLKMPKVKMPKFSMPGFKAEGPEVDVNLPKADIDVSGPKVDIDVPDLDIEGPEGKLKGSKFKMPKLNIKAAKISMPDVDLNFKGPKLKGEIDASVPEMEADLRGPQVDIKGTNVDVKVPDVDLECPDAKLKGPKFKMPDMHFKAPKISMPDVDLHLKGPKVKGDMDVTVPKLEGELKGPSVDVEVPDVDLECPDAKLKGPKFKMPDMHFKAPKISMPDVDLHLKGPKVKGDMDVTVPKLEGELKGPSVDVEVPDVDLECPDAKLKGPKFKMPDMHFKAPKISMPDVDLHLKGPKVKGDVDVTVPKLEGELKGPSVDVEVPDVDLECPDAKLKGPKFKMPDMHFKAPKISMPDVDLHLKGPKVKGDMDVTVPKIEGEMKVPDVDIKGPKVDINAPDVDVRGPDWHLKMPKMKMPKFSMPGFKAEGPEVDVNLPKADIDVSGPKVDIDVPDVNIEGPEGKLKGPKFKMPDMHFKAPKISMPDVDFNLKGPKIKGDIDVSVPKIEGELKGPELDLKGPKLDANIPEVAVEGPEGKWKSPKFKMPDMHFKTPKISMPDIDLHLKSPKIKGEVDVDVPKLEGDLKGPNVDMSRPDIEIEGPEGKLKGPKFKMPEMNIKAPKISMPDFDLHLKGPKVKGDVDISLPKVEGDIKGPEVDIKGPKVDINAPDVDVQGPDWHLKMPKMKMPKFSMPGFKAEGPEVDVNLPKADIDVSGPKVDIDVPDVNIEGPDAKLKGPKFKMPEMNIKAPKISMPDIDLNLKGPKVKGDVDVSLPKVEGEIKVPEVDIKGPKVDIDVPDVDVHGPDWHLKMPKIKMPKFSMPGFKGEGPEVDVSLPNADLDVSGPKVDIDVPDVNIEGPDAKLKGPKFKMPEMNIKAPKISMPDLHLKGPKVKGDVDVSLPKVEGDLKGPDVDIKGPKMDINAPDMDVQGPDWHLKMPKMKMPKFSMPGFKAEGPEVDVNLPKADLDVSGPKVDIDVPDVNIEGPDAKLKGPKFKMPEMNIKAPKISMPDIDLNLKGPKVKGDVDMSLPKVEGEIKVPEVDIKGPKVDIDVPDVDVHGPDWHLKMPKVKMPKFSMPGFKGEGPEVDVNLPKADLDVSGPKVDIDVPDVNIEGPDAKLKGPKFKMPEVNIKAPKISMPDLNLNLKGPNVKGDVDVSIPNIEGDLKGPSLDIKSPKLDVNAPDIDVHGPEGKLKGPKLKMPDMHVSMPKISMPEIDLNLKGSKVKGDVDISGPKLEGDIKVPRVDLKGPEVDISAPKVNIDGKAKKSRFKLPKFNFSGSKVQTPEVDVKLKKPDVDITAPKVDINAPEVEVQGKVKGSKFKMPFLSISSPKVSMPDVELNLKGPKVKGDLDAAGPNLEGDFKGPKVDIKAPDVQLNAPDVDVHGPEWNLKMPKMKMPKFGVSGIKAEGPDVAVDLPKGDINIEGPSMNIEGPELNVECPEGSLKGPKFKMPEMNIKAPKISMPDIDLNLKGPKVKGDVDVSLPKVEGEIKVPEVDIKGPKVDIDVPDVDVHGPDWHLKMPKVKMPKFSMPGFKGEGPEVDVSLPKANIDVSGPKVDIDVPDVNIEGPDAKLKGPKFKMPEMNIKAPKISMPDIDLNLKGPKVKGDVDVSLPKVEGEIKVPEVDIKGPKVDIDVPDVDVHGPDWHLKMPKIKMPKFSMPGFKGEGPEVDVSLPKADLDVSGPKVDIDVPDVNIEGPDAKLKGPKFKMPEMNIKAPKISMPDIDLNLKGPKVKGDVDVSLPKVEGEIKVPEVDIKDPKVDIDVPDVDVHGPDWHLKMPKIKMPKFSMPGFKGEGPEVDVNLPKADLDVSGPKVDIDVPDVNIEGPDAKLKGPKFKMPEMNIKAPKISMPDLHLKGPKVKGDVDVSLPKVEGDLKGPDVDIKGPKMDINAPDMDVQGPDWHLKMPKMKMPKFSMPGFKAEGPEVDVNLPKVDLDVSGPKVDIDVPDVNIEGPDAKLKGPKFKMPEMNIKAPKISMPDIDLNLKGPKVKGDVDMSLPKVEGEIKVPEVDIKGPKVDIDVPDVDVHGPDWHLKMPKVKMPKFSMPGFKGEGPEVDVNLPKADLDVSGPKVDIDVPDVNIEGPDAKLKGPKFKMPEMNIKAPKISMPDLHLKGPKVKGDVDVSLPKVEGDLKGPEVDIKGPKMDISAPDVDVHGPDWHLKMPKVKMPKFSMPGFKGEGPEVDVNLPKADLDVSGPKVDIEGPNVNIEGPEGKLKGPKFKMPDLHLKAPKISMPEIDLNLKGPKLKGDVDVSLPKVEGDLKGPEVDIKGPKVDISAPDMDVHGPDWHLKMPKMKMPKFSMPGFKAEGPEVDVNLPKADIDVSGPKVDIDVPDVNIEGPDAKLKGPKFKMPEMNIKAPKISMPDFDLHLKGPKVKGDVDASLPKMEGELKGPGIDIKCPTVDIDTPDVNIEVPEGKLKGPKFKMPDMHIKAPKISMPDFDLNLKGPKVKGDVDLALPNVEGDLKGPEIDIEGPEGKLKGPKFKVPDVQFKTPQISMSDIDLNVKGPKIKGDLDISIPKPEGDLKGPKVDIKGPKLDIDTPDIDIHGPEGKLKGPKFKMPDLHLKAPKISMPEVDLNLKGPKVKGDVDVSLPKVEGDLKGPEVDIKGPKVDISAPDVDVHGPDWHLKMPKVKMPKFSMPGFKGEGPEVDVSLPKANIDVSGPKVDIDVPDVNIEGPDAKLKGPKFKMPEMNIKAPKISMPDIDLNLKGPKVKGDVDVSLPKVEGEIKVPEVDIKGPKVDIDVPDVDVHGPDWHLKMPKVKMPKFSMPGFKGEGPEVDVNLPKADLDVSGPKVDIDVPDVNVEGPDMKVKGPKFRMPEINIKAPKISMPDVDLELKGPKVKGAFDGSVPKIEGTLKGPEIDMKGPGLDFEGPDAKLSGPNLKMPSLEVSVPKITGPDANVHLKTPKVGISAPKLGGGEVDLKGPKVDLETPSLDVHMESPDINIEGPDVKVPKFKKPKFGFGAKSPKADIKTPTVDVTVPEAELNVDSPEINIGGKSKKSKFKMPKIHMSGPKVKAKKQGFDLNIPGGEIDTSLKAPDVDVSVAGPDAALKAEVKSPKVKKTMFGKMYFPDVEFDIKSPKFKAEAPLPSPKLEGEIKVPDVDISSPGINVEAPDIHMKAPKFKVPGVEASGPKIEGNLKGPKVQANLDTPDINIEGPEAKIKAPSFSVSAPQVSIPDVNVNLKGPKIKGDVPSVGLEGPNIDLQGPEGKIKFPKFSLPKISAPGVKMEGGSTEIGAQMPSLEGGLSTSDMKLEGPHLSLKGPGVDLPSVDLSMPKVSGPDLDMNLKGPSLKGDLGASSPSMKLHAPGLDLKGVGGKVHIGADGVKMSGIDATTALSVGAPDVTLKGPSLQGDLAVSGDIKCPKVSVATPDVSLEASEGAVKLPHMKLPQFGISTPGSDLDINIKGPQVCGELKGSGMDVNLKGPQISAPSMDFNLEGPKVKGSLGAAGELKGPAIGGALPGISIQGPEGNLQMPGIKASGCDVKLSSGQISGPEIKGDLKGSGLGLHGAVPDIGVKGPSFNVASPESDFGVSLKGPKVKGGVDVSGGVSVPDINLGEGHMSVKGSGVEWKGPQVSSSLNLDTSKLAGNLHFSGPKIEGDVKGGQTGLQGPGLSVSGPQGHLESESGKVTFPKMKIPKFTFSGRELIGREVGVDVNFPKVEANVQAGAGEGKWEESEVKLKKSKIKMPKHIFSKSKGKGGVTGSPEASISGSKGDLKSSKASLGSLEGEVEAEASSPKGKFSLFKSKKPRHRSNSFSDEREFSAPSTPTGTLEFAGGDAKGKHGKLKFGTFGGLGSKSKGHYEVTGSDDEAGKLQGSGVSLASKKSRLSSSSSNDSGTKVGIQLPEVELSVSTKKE
UniProt P07724, residues 25-608: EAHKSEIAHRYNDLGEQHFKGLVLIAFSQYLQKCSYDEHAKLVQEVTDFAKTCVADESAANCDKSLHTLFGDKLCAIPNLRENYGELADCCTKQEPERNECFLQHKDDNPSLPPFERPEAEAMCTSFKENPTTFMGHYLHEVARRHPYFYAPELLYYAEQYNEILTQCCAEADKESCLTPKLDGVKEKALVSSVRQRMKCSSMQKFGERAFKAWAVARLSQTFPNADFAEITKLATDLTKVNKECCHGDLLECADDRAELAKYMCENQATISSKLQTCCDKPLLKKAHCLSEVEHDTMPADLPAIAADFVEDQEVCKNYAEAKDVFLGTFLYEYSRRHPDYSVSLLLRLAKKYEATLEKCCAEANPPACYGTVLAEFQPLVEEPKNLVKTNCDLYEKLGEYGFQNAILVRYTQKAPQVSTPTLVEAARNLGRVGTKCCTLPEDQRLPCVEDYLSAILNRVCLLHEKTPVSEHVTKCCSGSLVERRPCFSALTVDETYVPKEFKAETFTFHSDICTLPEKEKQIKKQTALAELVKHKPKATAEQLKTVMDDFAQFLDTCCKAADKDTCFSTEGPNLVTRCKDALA

B1: Phosphate carrier protein, mitochondrial (protein, UniProt Q8VEM8 46-357)
chain: AVEEYSCEFGSMKYYALCGFGGVLSCGLTHTAVVPLDLVKCRMQVDPQKYKGIFNGFSITLKEDGVRGLAKGWAPTLIGYSMQGLCKFGFYEVFKALYSNILGEENTYLWRTSLYLASSASAEFFADIALAPMEAAKVRIQTQPGYANTLREAVPKMYKEEGLNAFYKGVAPLWMRQIPYTMMKFACFERTVEALYKFVVPKPRSECTKAEQLVVTFVAGYIAGVFCAIVSHPADSVVSVLNKEKGSTASQVLQRLGFRGVWKGLFARIIMIGTLTALQWFIYDSVKVYFRLPRPPPPEMPESLKKKLGLTE
B2: ADP/ATP translocase 1 (protein, UniProt P48962 1-298)
chain: MGDQALSFLKDFLAGGIAAAVSKTAVAPIERVKLLLQVQHASKQISAEKQYKGIIDCVVRIPKEQGFLSFWRGNLANVIRYFPTQALNFAFKDKYKQIFLGGVDRHKQFWRYFAGNLASGGAAGATSLCFVYPLDFARTRLAADVGKGSSQREFNGLGDCLTKIFKSDGLKGLYQGFSVSVQGIIIYRAAYFGVYDTAKGMLPDPKNVHIIVSWMIAQSVTAVAGLVSYPFDTVRRRMMMQSGRKGADIMYTGTLDCWRKIAKDEGANAFFKGAWSNVLRGMGGAFVLVLYDEIKKYV
B3: Ssb (protein, UniProt P32067 1-415)
chain: MAENGDNEKMTALEAKICHQIEYYFGDFNLPRDKFLKEQIKLDEGWVPLETMIKFNRLNRLTTDFNVIVQALSKSKAKLMEVSADKTKIRRSPSRPLPEVTDEYKNDVKNRSVYIKGFPTDATLDDIKEWLDDKGQILNIQMRRTLHKTFKGSIFAVFDSIQSAKKFVEIPGQKYKDTNLLILFKEDYFAKKNEERKQSKVEAKLKAKQEHEGRHKPGSTETRALEGKMGCLLKFSGDLDDQTCREDLHFLFSNHGEIKWVDFARGAKEGIILFKEKAKEALEKARNANNGNLLLRNKKVTWKVLEGHAEKEALKKITDDQQESLNKWKSKGGHAGGRFKGSHVFTAARRFKGKGKGNRPGYAGAPKGRGQFHGRRTRFDDDDRRRGPMKRGRDGRDREEPASKHKKRENGARDK
B4: Vesicle-associated membrane protein 8 (protein, UniProt O70404 1-101)
chain: MEEASGSAGNDRVRNLQSEVEGVKNIMTQNVERILSRGENLDHLRNKTEDLEATSEHFKTTSQKVARKFWWKNVKMIVIICVIVLIIVILIILFATGTIPT
B5: Zc3hav1 (protein, UniProt Q3UPF5 1-996)
chain: MTDPEVFCFITKILCAHGGRMTLEELLGEISLPEAQLYELLKAAGPDRFVLLETGDQAGITRSVVATTRARVCRRKYCQRPCDSLHLCKLNLLGRCHYAQSQRNLCKYSHDVLSEQNFQVLKNHELSGLNQEELAVLLVQSDPFFMPEICKSYKGEGRKQICGQPQPCERLHICEHFTRGNCSYLNCLRSHNLMDRKVLAIMREHGLSSDVVQNIQDICNNKHTRRNPPSMRAPHPHRRGGAHRDRSKSRDRFHHNSLEVLSTVSPLGSGPPSPDVTGCKDPLEDVSADVTQKFKYLGTQDRAQLSSVSSKAAGVRGPSQMRASQEFLEDGDPDGLFSRNRSDSSTSRTSAAGFPLVAAQRNEAGAMKMGMPSGHHVEVKGKNEDIDRVPFLNSYIDGVTMEEATVSGILGKRATDNGLEEMILSSNHQKSVAKTQDPQTAGRITDSGQDTAFLHSKYEENPAWPGTSTHNGPNGFSQIMDETPNVSKSSPTGFGIKSAVTGGKEAVYSGVQSLRSHVLAMPGETTTPVQGSNRLPPSPLSSSTSHRVAASGSPGKSSTHASVSPASEPSRMMMMMSDPAEYSLCYIVNPVSPRMDDHGLKEICLDHLYRGCQQVNCNKNHFHLPYRWQLFILPTWMDFQDMEYIERAYCDPQIEIIVIEKHRINFKKMTCDSYPIRRLSTPSFVEKTLNSVFTTKWLWYWRNELNEYTQYGHESPSHTSSEINSAYLESFFHSCPRGVLQFHAGSQNYELSFQGMIQTNIASKTQRHVVRRPVFVSSKDVEQKRRGPDHQPVMPQADALTLFSSPQRNASTVSSNEYEFIELNNQDEEYAKISEQFKASMKQFKIVTIKRIWNQKLWDTFERKKQKMKNKTEMFLFHAVGRIHMDYICKNNFEWILHGNREIRYGKGNYFTKEAMYSHKSCSYDSRGTVMFVARVLVGSVIEGNMTLSSPPALYDSCVDTRLNPSVFVIFRKEQIYPEYVIEYMELEKEKGCIIS
B6: Myosin light polypeptide 6 (protein, UniProt Q60605 1-151)
chain: MCDFTEDQTAEFKEAFQLFDRTGDGKILYSQCGDVMRALGQNPTNAEVLKVLGNPKSDEMNVKVLDFEHFLPMLQTVAKNKDQGTYEDYVEGLRVFDKEGNGTVMGAEIRHVLVTLGEKMTEEEVEMLVAGHEDSNGCINYEAFVRHILSG
B7: Peroxiredoxin-1 (protein, UniProt P35700 1-199)
chain: MSSGNAKIGYPAPNFKATAVMPDGQFKDISLSEYKGKYVVFFFYPLDFTFVCPTEIIAFSDRADEFKKLNCQVIGASVDSHFCHLAWINTPKKQGGLGPMNIPLISDPKRTIAQDYGVLKADEGISFRGLFIIDDKGILRQITINDLPVGRSVDEIIRLVQAFQFTDKHGEVCPAGWKPGSDTIKPDVNKSKEYFSKQK

Key:
[1] = target: human mtSOD1-L126delTT with a FLAG sequence at the C terminus (human) (UniProt P00441); experiment: affinity purification with mass spectrometry; anti-FLAG M2 IP (5 ug antibody, protein A/G magnetic beads) from the cytosolic fraction of DF7 cells (500 ug total protein); DIA proteomics; no control IP told for this fraction
[2] = target: human mtSOD1-L126delTT with a FLAG sequence at the C terminus (human) (UniProt P00441); experiment: affinity purification with mass spectrometry; anti-FLAG M2 IP (5 ug antibody, protein A/G magnetic beads) from the nuclear fraction of DF7 cells (500 ug total protein); control IP with monoclonal mouse IgG (MOPC 21); DIA proteomics; hits: log2 FC >= 2 over control or missing in the control IP

| Molecule | binding [1] | binding [2] |
| --- | --- | --- |
| LIM domain and actin-binding protein 1 (from UniProt Q9ERG0 1-753) | binds |  |
| Myosin-11 (from UniProt O08638 1-1972) | binds |  |
| AHNAK nucleoprotein (desmoyokin) (from UniProt E9Q616 1-5656) | binds |  |
| Fibronectin (from UniProt P11276 33-2477) | binds |  |
| E3 ubiquitin-protein ligase TRIP12 (from UniProt G5E870 1-2025) | binds |  |
| Albumin (from UniProt P07724 25-608) | binds |  |
| B1 | binds |  |
| B2 | binds |  |
| B3 |  | binds |
| B4 |  | binds |
| B5 |  | binds |
| B6 | binds |  |
| B7 | binds |  |
